{"source": "paper PMC11882097", "molecular_target": "T1, NbSGS3-Y^C (N. benthamiana) (UniProt X4YFK1)", "T1 sequence": "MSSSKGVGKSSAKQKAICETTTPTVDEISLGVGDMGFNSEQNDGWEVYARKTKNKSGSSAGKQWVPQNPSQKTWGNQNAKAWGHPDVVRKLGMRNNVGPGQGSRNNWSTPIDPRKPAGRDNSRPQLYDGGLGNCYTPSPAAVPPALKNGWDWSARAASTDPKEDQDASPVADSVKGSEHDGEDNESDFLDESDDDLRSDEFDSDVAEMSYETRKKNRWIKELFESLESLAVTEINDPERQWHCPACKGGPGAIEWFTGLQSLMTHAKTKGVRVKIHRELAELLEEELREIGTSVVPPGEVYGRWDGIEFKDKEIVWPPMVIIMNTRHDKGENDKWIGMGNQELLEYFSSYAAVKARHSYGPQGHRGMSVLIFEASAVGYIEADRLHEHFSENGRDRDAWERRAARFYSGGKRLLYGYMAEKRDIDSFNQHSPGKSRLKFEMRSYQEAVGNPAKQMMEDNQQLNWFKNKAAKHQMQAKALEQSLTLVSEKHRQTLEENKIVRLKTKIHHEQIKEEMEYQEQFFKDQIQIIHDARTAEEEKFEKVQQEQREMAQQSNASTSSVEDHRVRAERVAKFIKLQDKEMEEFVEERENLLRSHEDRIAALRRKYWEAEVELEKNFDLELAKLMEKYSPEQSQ", "test": "split reporter; BiFC of YN and YC fusions co-agroinfiltrated 1:1 into N. benthamiana leaves; YFP signal by confocal microscopy at 48-72 hpi", "note": "No constants are given. Whether binding was seen depends on the method and setting. Binding seen in cells or lysates may run through a third protein. Some entries that bind do so weakly or less than the wild type.", "data": [{"binder": "NbSGS3-Y^N (protein, UniProt X4YFK1 1-635) MSSSKGVGKSSAKQKAICETTTPTVDEISLGVGDMGFNSEQNDGWEVYARKTKNKSGSSAGKQWVPQNPSQKTWGNQNAKAWGHPDVVRKLGMRNNVGPGQGSRNNWSTPIDPRKPAGRDNSRPQLYDGGLGNCYTPSPAAVPPALKNGWDWSARAASTDPKEDQDASPVADSVKGSEHDGEDNESDFLDESDDDLRSDEFDSDVAEMSYETRKKNRWIKELFESLESLAVTEINDPERQWHCPACKGGPGAIEWFTGLQSLMTHAKTKGVRVKIHRELAELLEEELREIGTSVVPPGEVYGRWDGIEFKDKEIVWPPMVIIMNTRHDKGENDKWIGMGNQELLEYFSSYAAVKARHSYGPQGHRGMSVLIFEASAVGYIEADRLHEHFSENGRDRDAWERRAARFYSGGKRLLYGYMAEKRDIDSFNQHSPGKSRLKFEMRSYQEAVGNPAKQMMEDNQQLNWFKNKAAKHQMQAKALEQSLTLVSEKHRQTLEENKIVRLKTKIHHEQIKEEMEYQEQFFKDQIQIIHDARTAEEEKFEKVQQEQREMAQQSNASTSSVEDHRVRAERVAKFIKLQDKEMEEFVEERENLLRSHEDRIAALRRKYWEAEVELEKNFDLELAKLMEKYSPEQSQ", "values": [{"measurement": "binding", "value": "binds"}]}]}
